Laboratory results taken from PubChem BioAssay AID2685 (National Center for Advancing Translational Sciences (NCATS), 2010).
Hit rate of the full screen: of about 320,000 compounds, about 2,100 (0.66%) were called active. This list was built around the results that the source calls inconclusive (neither active nor inactive); the mix of calls is not that of the screen. Calls come from the whole dose curve; as a rule, active = well fitted inhibition curve with a large enough effect in the signal ratio, with a control signal flat (not every such curve was filed as active); inconclusive = small, poorly fitted or top-dose-only effect, or effect the other way, or a change in a side signal; inactive = flat fitted curve, though single readings scatter; the % refers to the signal ratio. Where the call is inconclusive, the potency comes from a doubtful curve fit.

assay: qHTS Assay for Lipid Storage Modulators in Drosophila S3 Cells; conditions: BODIPY lipid droplet fluorescence, 18-24 h, cells fed with added oleic acid; lipid storage change, negative = inhibition: at 46.1 µM (top of the series) unless noted
Summary of the method: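 Laser-scanning cytometry quantifies lipid droplet accumulation (500–530 nm total intensity; droplet/cell object ratio) in oleic acid-fed (400 uM added) Drosophila S3 cells treated with a concentration series. 20 uM Triacsin C defined 100% inhibition.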
% is set by controls: 0 for no effect and ±100 for the full control effect; potency is the fitted concentration of half-maximal effect.

Compound	lipid storage change, negative = inhibition	Potency
O=[N+]([O-])c1ccccc1/C=N\Nc1nccs1	inconclusive: 29.2%	
CCOc1ccc2c(c1)C(C)=CC(C)(C)N2C(=O)Nc1ccccc1F		inconclusive: 29.1 µM [activator, single point]
CCCCN1CCc2c([nH]c3c(C)cccc23)C1=O		inconclusive: 13 µM [rising, single point]
O=S(=O)(c1ccc2oc(=S)[nH]c2c1)N1CCOCC1	inconclusive: 1.4%	
COc1cccc(CNC(=O)Nc2cccs2)c1		inconclusive: 5.8 µM [activator, partial curve]
COC(=O)c1ccccc1NC(=O)/C=C/C(=O)O	inconclusive: 223%	
Oc1[nH]c2ccccc2c1N=Nc1ncnc2c1oc1ccccc12	inactive	
CNCCCc1[nH]nc(N)c1C#N	inconclusive: 86.3%	
COC(=O)c1cc2ccsc2n1Cc1nc(-c2cccc(Cl)c2)oc1C	inconclusive: -5.49%	
C=CCNC(=O)CC(C)C(CCCCC)C(=O)O (stereo not given)	inconclusive: -29.1%	
CCN(Cc1cc(=O)[nH]c2ccccc12)C(=O)c1ccc(C)cc1	inconclusive: -4.03%	
CCn1nc(C)c(CN2CCN(Cc3ccsc3)C(CCO)C2)c1C (stereo not given)	inconclusive: 26.4%	
O=C(c1c(Cl)nc2sccn12)N1CCN(c2cccc(Cl)c2)CC1	inconclusive: -8.29%	
C(=N\Nc1ncnc2nc[nH]c12)/c1cccs1	inconclusive: 10.8%	
COc1ccc(F)cc1Cn1nc(C(=O)O)c2ccccc2c1=O	inconclusive: 86.5%	
O=C(Nc1ccc(F)cc1)C(=O)C1C(=O)Nc2ccccc21 (stereo not given)	inconclusive: -8.24%	
Cc1cc(-c2nc3ccccc3c(=O)o2)ccc1[N+](=O)[O-]	inconclusive: -6.67%	
COc1ccccc1N1CCN(C(=O)C2c3ccccc3Oc3ccccc32)CC1	inconclusive: -32.9%	
Cc1ccc2c(CC(=O)NCC3(N4CCOCC4)CCCCC3)coc2c1C	inconclusive: -20.9%	
COC(=O)c1ccc(Cl)c(NC(=O)CSc2nnc(-c3ccncc3)o2)c1	inconclusive: -0.457%	
CCNC(=O)c1ccc(NC(=O)CC2SC(N3CCCCC3)=NC2=O)cc1 (stereo not given)		inconclusive: 1.03 µM [activator, full curve]
COC(=O)c1sc(-c2ccc(Cl)cc2)cc1NC(=O)CSCC(=O)O	inconclusive: 54.5%	
C(=N\c1c(-c2ccccc2)nc2n1CCS2)/c1ccccc1	inconclusive: 25.8%	
Cc1sc2ncnc(Sc3nnnn3-c3ccc(Cl)cc3)c2c1C	inconclusive: 32.8%	
Cc1ccc(N2C(=O)CSC2=S)cc1C	inconclusive: 23.4% [at 9.22 µM]	

Two compounds picked at random from those above:
Compound	lipid storage change, negative = inhibition	Potency
CCN(Cc1cc(=O)[nH]c2ccccc12)C(=O)c1ccc(C)cc1	inconclusive: -4.03%	
COc1ccccc1N1CCN(C(=O)C2c3ccccc3Oc3ccccc32)CC1	inconclusive: -32.9%	
